In patent EP4541796A1 (Hangzhou Adcoris Biopharma Co., Ltd, priority 2022, dated 2024):

Assay: general procedure: solution-phase peptide synthesis; HATU, DIPEA

| Substance | step yield (late stage modification step) | other results |
| --- | --- | --- |
| Fmoc-GGFGG | 90% |  |
| Fmoc-GGFGG-OtBu |  | step yield (coupling step): 79% |
| Fmoc-Gly-Gly-Phe-Gly-N-hydroxymethylacetate | 59% |  |
| Fmoc-Gly-Gly-Phe-Gly-methoxy-N-methylaminoacetyl exatecan |  | conjugation yield (conjugation step): 50% |
| mc-Gly-Gly-Phe-Gly-methoxy-N-methylaminoacetyl exatecan | 30% yield |  |
| Gly-Gly-Phe-Gly-methoxy-N-methylaminoacetyl exatecan | 100% |  |

Where no end group is shown, it is not given here. The star is where a group is joined. Fmoc = O=C(OCC1c2ccccc2-c2ccccc21)*; OtBu = CC(C)(C)O*
